Laboratory results from the supplement of paper PMC10849652.
The list shows a part of the results.

Amino acid sequences for entries named in this document (tags omitted). A change or cut given only in a name is not applied to a line headed by its entry.
UniProt P48380: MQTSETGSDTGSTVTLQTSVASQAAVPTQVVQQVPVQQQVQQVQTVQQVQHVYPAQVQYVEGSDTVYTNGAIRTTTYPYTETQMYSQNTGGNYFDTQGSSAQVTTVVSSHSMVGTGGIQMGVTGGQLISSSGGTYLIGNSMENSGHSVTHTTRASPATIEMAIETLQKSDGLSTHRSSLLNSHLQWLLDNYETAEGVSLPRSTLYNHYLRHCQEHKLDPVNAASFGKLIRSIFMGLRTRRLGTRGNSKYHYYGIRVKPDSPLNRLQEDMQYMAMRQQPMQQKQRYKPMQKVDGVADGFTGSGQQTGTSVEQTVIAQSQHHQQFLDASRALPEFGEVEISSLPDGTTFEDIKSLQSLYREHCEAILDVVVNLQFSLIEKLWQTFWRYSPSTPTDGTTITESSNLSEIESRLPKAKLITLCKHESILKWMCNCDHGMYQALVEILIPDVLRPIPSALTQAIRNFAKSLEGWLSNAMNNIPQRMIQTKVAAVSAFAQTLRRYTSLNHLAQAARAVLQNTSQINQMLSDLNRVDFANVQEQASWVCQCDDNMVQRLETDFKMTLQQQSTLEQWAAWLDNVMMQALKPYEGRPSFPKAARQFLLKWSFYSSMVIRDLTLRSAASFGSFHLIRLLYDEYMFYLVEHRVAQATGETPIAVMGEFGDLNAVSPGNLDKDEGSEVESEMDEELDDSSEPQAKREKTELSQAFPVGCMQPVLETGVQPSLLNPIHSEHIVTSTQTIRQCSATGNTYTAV
UniProt Q8IXT5: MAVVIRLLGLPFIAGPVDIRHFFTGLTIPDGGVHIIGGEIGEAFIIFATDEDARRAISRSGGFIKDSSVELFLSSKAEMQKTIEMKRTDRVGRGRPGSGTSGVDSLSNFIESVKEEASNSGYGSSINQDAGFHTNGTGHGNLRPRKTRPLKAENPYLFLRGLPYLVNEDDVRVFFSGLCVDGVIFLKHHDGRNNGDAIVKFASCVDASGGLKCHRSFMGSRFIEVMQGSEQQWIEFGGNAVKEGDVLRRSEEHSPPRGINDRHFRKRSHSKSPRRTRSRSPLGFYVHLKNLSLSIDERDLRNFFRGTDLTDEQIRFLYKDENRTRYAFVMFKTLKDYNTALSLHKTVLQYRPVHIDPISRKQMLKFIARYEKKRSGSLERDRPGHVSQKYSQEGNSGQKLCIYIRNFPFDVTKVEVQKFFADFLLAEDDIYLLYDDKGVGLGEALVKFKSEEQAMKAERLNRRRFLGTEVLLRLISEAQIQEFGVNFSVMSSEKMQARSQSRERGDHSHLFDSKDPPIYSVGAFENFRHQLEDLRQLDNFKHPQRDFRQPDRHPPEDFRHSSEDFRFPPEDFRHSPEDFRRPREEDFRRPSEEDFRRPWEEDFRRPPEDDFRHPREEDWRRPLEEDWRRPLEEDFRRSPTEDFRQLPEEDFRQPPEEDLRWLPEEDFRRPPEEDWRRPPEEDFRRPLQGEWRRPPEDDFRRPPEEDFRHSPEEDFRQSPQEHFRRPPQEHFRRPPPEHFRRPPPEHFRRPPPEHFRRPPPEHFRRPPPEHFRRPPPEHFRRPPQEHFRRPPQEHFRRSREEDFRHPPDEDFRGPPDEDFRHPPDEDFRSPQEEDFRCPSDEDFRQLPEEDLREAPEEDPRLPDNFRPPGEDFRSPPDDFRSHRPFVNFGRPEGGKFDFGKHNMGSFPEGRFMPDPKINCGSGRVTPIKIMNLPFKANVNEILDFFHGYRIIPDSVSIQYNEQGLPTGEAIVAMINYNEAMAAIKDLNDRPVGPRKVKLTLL
UniProt Q9H477: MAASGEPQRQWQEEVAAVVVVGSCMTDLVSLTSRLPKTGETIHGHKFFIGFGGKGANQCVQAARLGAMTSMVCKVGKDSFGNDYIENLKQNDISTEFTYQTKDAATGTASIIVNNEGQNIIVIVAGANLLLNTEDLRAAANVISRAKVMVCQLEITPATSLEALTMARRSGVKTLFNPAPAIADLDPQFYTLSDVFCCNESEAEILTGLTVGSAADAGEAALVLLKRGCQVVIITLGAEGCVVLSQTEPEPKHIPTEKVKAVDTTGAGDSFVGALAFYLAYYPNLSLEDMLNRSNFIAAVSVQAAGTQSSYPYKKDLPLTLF
UniProt Q9H4X1: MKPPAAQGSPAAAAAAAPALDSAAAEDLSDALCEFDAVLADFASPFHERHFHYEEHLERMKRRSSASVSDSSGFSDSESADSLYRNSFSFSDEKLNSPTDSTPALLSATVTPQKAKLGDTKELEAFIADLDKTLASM
UniProt Q96E39: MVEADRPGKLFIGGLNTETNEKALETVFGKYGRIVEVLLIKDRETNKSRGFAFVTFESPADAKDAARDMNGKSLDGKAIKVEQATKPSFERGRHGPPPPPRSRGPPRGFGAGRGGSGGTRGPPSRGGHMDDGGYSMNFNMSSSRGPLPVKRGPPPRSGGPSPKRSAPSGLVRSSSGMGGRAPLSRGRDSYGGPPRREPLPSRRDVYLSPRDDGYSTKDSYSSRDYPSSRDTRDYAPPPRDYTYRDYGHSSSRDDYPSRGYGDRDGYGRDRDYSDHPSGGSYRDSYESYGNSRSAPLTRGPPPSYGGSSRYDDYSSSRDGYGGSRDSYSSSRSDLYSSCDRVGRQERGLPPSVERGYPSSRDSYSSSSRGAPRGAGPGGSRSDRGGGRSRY
UniProt O15211: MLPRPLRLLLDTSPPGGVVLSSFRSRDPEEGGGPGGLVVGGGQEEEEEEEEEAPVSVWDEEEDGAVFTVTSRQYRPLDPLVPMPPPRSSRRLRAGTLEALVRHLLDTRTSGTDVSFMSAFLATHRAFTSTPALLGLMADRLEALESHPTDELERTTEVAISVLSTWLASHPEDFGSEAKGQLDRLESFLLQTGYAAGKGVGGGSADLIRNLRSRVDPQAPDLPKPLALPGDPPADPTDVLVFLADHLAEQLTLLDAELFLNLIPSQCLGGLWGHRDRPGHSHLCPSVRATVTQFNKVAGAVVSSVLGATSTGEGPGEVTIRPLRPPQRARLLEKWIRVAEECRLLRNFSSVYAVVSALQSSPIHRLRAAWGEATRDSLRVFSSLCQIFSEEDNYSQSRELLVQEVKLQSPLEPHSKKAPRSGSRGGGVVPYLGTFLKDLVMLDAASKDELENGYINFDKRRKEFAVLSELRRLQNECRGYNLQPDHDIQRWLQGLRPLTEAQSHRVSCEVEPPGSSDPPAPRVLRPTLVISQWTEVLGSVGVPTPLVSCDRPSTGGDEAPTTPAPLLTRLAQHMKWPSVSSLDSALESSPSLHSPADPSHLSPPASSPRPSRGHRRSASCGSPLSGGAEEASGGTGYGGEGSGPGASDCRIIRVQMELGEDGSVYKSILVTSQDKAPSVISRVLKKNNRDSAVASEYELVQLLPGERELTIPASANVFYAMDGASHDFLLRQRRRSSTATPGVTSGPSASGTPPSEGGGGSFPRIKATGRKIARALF
UniProt Q9BQ04: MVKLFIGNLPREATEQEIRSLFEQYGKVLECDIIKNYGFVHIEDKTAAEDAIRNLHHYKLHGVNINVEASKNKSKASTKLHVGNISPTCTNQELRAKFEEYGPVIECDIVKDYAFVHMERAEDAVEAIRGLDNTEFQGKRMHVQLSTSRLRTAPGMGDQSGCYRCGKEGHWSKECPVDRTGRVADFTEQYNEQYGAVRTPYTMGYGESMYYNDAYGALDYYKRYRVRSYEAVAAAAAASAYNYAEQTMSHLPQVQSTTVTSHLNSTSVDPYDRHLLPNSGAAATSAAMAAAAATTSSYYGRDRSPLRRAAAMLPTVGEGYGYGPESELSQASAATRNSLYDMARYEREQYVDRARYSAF
UniProt Q96H35: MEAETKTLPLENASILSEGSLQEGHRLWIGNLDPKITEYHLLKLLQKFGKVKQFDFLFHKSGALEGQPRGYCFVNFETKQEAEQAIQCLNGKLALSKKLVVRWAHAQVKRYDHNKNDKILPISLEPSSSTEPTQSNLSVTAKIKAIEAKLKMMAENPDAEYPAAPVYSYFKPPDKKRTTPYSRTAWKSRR
UniProt Q96EN9: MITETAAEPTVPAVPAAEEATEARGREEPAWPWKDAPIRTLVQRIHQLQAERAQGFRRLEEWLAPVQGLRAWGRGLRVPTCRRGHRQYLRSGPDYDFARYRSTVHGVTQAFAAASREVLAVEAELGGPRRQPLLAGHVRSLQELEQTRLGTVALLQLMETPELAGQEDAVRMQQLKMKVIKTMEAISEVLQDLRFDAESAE
UniProt Q9Y3P4: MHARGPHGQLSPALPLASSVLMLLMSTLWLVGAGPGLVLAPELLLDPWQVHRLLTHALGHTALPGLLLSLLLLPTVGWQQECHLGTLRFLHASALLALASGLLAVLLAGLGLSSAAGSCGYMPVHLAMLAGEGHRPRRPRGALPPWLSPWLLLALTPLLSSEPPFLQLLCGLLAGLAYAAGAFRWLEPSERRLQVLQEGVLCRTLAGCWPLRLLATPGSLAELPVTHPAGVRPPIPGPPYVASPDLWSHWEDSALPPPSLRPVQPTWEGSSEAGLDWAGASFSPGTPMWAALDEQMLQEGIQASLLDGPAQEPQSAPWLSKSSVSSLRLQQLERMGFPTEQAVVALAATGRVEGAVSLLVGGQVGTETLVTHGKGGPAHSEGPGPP
UniProt Q86WH2: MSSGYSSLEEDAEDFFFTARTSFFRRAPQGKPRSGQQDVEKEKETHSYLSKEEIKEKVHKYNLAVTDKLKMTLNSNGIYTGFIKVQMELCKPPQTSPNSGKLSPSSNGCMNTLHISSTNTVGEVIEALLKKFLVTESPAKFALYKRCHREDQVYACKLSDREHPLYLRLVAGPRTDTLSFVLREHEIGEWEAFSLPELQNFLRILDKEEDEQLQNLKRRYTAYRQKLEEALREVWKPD
UniProt Q8IUH3: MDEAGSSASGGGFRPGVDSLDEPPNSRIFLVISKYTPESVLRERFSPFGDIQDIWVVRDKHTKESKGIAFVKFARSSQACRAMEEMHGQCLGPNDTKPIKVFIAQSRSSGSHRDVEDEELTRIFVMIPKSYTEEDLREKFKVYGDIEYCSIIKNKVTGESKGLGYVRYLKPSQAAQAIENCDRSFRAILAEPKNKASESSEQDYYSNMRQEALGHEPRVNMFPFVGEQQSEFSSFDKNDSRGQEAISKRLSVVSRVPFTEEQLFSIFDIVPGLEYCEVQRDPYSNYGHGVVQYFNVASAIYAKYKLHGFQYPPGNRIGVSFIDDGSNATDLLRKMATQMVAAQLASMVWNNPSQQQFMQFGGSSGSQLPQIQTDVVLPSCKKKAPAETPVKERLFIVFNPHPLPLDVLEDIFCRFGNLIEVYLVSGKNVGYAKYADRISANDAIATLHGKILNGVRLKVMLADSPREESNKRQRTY
UniProt P49796: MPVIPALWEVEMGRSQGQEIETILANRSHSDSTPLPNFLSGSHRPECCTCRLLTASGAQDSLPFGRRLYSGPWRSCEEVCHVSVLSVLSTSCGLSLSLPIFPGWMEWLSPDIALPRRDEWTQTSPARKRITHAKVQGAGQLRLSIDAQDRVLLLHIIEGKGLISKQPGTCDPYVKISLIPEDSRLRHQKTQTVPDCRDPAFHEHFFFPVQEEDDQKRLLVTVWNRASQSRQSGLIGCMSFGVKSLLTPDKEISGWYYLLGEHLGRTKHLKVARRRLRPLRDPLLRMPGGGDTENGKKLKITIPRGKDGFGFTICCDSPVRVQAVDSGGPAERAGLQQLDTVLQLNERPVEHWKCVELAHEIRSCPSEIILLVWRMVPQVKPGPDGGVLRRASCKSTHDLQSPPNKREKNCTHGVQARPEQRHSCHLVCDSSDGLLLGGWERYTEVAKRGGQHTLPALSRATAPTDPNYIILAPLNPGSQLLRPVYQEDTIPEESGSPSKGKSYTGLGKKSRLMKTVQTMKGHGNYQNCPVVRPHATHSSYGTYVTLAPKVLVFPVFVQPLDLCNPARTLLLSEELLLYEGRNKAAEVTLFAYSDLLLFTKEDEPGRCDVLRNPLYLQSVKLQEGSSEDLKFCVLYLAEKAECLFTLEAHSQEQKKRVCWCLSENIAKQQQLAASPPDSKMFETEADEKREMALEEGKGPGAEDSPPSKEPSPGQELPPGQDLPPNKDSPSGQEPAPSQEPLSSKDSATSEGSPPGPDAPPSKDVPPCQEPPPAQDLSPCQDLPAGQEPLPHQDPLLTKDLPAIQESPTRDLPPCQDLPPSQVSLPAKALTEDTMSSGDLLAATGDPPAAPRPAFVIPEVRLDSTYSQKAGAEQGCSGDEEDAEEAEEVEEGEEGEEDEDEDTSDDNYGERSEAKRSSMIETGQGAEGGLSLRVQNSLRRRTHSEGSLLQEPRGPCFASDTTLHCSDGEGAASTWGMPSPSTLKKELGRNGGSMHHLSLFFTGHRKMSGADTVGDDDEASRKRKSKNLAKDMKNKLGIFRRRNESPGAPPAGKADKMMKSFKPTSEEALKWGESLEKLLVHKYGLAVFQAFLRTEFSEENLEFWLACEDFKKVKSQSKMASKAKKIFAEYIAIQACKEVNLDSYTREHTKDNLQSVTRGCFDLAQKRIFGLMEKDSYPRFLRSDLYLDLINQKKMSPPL
UniProt Q8N0T1: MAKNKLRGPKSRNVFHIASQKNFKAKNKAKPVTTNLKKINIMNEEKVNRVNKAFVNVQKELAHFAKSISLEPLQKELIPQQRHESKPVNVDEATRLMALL

Columns and labels:
Experiment in all cases: log2 fold change, soluble protein after heating vs DMSO (PISA); higher = thermal stabilisation; K562 lysate, 10 uM; active = over 0.2 and 3.5 SD of the protein, either way, in both replicates (recomputed)
[1] = compound: CCn1cc(-c2ccnc3[nH]c(-c4cccc(CN(C)C)c4)cc23)c(-c2ccc(NC(=O)N(C)C)cc2)n1
Outline: (§1)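 K562 pellets were dounce-homogenised in PBS pH 7.4 with 1 mM MgCl2, and the crude extract at 1 mg/mL protein was treated with 10 μM compound for 30 min. Aliquots were heated for 3 min across 48°C-58°C, pooled, and brought to 0.5% NP-40 at 4°C; soluble protein was the supernatant after 21,000xg for 90 min. Soluble protein was quantified by TMTpro 16plex LC-MS/MS with channel sums equalised, and reported as log2 fold change in thermal stability against DMSO controls, with values from duplicates.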

[2] = compound: CN1CCC(CNc2ccc3ncc(-c4cccc(OC(F)(F)F)c4)n3n2)CC1
Outline: as §1

sotrastaurin = compound: CN1CCN(c2nc(C3=C(c4c[nH]c5ccccc45)C(=O)NC3=O)c3ccccc3n2)CC1 [sotrastaurin]
Outline: as §1

barasertib = compound: CCN(CCCOc1ccc2c(Nc3cc(CC(=O)Nc4cccc(F)c4)[nH]n3)ncnc2c1)CCOP(=O)(O)O [barasertib]
Outline: as §1

[3] = compound: CC[C@@H]1C(=O)N(C)c2cnc(Nc3ccc(C(=O)NC4CCN(C)CC4)cc3OC)nc2N1C1CCCC1
Outline: as §1

saracatinib = compound: CN1CCN(CCOc2cc(OC3CCOCC3)c3c(Nc4c(Cl)ccc5c4OCO5)ncnc3c2)CC1 [saracatinib]
Outline: as §1

[4] = compound: CCCS(=O)(=O)Nc1ccc(F)c(C(=O)c2c[nH]c3ncc(Cl)cc23)c1F
Outline: as §1

volasertib = compound: CC[C@@H]1C(=O)N(C)c2cnc(Nc3ccc(C(=O)N[C@H]4CC[C@H](N5CCN(CC6CC6)CC5)CC4)cc3OC)nc2N1C(C)C [volasertib]
Outline: as §1

[5] = compound: CCn1c(C(=O)N(C2CC2)C2CC2)cc2c3c(ncn3C)c(Nc3cc(C)n(C)n3)nc21
Outline: as §1

vemurafenib = compound: CCCS(=O)(=O)Nc1ccc(F)c(C(=O)c2c[nH]c3ncc(-c4ccc(Cl)cc4)cc23)c1F [vemurafenib]
Outline: as §1

Measured: log2 fold change

RGS19 (UniProt P49795)
inactive: [1] 0.192 | [2] 0.124 | sotrastaurin 0.157

RGPD6 (UniProt H7BZ48)
inactive: sotrastaurin -0.009

RFX3 (UniProt P48380)
inactive: barasertib 0.085 | [3] -0.076 | [1] 0.006 | [2] 0.116 | saracatinib -0.009

RBBP4 isoform 4 (UniProt Q09028)
inactive: [4] -0.253 | volasertib -0.025 | [5] -0.272 | [1] 0.916 | [2] -0.133

RBM12B (UniProt Q8IXT5)
inactive: barasertib 0.047 | [5] 0.078

RBKS (UniProt Q9H477)
inactive: [5] -0.027 | [1] 0.013 | [2] 0.104 | saracatinib 0.039

RBM20 (UniProt Q5T481)
inactive: vemurafenib -0.177 | barasertib 0.016 | [5] -0.095 | saracatinib -0.083

RGCC (UniProt Q9H4X1)
inactive: vemurafenib 0.025 | [5] -0.056 | [1] 0.015 | [2] -0.211

RBP4 (UniProt P02753)
inactive: barasertib 0.03 | [1] 0.075 | [2] 0.036 | sotrastaurin -0.021

Two entries drawn at random from the list so far:
RBM20 (UniProt Q5T481)
inactive: vemurafenib -0.177 | barasertib 0.016 | [5] -0.095 | saracatinib -0.083

RGPD6 (UniProt H7BZ48)
inactive: sotrastaurin -0.009

The results go on:

RHBDD2 isoform 2 (UniProt Q6NTF9)
inactive: [5] -0.051

RELL1 (UniProt Q8IUW5)
inactive: sotrastaurin 0.148

RBMXL1 (UniProt Q96E39)
inactive: vemurafenib -0.024 | [3] 0.097 | saracatinib -0.019 | sotrastaurin -0.045

RASSF7 (UniProt Q02833)
inactive: barasertib 0.264 | [1] 0.024 | [2] -0.037 | sotrastaurin 0.061

RCBTB1 (UniProt Q8NDN9)
inactive: [5] -0.126 | [1] -0.022 | [2] 0.119 | sotrastaurin -0.195

RGL2 (UniProt O15211)
inactive: [4] -0.066 | volasertib -0.042 | [5] 0.049 | [1] -0.027 | [2] -0.084 | saracatinib 0.037 | sotrastaurin 0.075

RFX2 (UniProt P48378)
inactive: [4] -0.042 | barasertib 0.032 | volasertib -0.158 | [1] 0.137 | [2] -0.06 | saracatinib -0.048 | sotrastaurin 0.088

2 successive entries from above, for reference:
RBMXL1 (UniProt Q96E39)
inactive: vemurafenib -0.024 | [3] 0.097 | saracatinib -0.019 | sotrastaurin -0.045

RASSF7 (UniProt Q02833)
inactive: barasertib 0.264 | [1] 0.024 | [2] -0.037 | sotrastaurin 0.061

Next part:

RFWD3 (UniProt Q6PCD5)
inactive: vemurafenib -0.073 | barasertib 0.004 | [3] -0.011 | [5] -0.062 | [1] -0.087 | [2] -0.055 | saracatinib -0.036 | sotrastaurin -0.017

RBM4B (UniProt Q9BQ04)
inactive: sotrastaurin -0.053

RGS14 (UniProt O43566)
inactive: [4] 0.015 | barasertib 0.016 | [3] 0.189 | volasertib -0.117 | [5] 0.009 | [1] -0.243 | [2] 0.05 | saracatinib 0.01 | sotrastaurin -0.017

RECQL4 (UniProt O94761)
inactive: vemurafenib -0.019 | barasertib 0.1 | [3] 0.054 | [5] 0.043 | [1] -0.254 | [2] -0.026 | saracatinib 0.043 | sotrastaurin -0.017

RBM18 (UniProt Q96H35)
inactive: vemurafenib 0.034 | [3] 0.064 | [5] 0.064 | [1] 0.102 | [2] -0.09

RBM4 isoform 3 (UniProt Q9BWF3)
inactive: sotrastaurin 0.074

RHD (UniProt Q02161)
inactive: [5] 0.087 | [1] 0.215 | [2] 0.058 | saracatinib 0.048

RBFOX2 isoform 8 (UniProt O43251)
inactive: [4] 0.057 | barasertib 0.02 | [3] 0.017 | volasertib -0.124 | [5] 0.087 | [1] -0.078 | [2] -0.219 | saracatinib -0.058 | sotrastaurin 0.002

REXO1 (UniProt Q8N1G1)
inactive: barasertib 0.167 | [5] 0.183 | [1] -0.334 | [2] -0.007 | sotrastaurin -0.003

RAVER2 (UniProt Q9HCJ3)
inactive: [3] -0.025 | [5] -0.003 | [1] 0.171 | [2] 0.051 | saracatinib 0.075 | sotrastaurin 0.078

REX1BD (UniProt Q96EN9)
inactive: [3] 0.1 | [5] 0.012 | [1] 0.07 | [2] 0.177 | saracatinib 0.113 | sotrastaurin -0.082

RBFA (UniProt Q8N0V3)
inactive: [5] 0.001 | [1] 0.027 | [2] -0.091 | sotrastaurin 0.101

RHBDD3 (UniProt Q9Y3P4)
inactive: sotrastaurin -0.055

RASSF3 (UniProt Q86WH2)
inactive: [4] -0.091 | volasertib -0.121 | [1] -0.191 | [2] -0.129 | sotrastaurin -0.008

RBBP9 (UniProt O75884)
inactive: vemurafenib -0.019 | barasertib 0.03 | [5] -0.022 | sotrastaurin -0.066

RBBP4 isoform 2 (UniProt Q09028)
inactive: [4] -0.037 | barasertib 0.008 | volasertib 0.048

RCOR2 (UniProt Q8IZ40)
inactive: [5] -0.004

RBM45 (UniProt Q8IUH3)
inactive: [4] 0.12 | volasertib -0.207 | [1] 0.128 | [2] -0.015 | sotrastaurin 0.077

RGS3 (UniProt P49796)
inactive: [4] -0.052 | barasertib 0.105 | volasertib -0.019 | [5] -0.243 | [1] -0.196 | [2] 0.108 | sotrastaurin 0.034

RBIS (UniProt Q8N0T1)
inactive: vemurafenib 0.028 | barasertib -0.076 | [3] 0.115 | [5] 0.049 | [1] -0.082 | [2] 0.106 | saracatinib -0.044 | sotrastaurin 0.006

RESF1 (UniProt Q9HCM1)
inactive: [3] -0.003 | [5] 0.012 | saracatinib 0.034 | sotrastaurin -0.022

RBM48 isoform 2 (UniProt Q5RL73)
inactive: vemurafenib 0.003 | [3] 0.039 | [5] 0.071 | [1] -0.007 | [2] 0.097 | saracatinib 0.02 | sotrastaurin -0.048

RBM41 (UniProt Q96IZ5)
inactive: barasertib 0.05
